From article PMC4705532

System: elastase
Experiment: resonance light scattering
Details: 2.0 uM methyl violet, 100-fold excess; 10 mM Tris pH 7.4, 2.0 uM methyl violet (duplex sensor), target binding 20 min at 37 °C; salt not stated; commercial protein

ATCTACGAATTCATCAGGGCTAAAGAGTGCAGAGTTACTTAGACCTTCCTCCGCAATACTCCCCCAGGTT (double strand) [Lapt≈Aapt duplex (with methyl violet)]
binding result: no binding

The exact form of at least one protein or probe is not confirmed. Negatives hold for the conditions tested.
